Experimental data published in publication PMC3795256.
Results are given in words; binding and its absence hold for the method and conditions named. In cells and extracts the contact can be indirect. Some binding calls cover weakened binding; strength is not graded here. Where a sequence is shown, tags or fusion partners need not be part of it.

Amino acid sequences for entries named in this document (tags omitted). Residues count along the entry.
UniProt P07237, residues 18-508: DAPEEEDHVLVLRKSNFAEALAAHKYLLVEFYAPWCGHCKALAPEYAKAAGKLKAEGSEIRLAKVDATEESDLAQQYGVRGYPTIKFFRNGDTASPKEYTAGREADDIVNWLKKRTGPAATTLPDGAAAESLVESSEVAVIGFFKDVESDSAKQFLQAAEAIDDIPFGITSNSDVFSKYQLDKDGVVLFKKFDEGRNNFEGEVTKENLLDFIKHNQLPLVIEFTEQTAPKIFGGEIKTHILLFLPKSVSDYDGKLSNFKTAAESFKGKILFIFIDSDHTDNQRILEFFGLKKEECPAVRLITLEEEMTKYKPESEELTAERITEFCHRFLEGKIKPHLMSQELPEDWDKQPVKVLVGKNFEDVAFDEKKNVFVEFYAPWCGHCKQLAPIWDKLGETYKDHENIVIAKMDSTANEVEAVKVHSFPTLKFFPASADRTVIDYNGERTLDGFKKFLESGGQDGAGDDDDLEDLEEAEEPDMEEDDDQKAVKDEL

Target: T1, Ero1α-FLAG (ER oxidoreductin-1 α, wild type) (human) (UniProt Q96HE7)
T1 sequence: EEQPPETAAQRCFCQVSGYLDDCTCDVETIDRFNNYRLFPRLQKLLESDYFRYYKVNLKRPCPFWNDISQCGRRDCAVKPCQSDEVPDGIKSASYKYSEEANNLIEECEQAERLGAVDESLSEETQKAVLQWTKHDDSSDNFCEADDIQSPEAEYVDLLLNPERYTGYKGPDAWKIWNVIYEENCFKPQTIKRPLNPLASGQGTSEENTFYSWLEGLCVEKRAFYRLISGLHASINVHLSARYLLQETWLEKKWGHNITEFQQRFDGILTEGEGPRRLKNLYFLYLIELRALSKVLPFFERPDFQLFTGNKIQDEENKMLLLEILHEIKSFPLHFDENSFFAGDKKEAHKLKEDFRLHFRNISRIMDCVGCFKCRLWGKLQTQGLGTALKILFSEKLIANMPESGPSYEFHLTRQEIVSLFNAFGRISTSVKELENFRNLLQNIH
Assay: co-IP; HeLa cells transfected with Prx4-FLAG or Ero1α-FLAG, with or without 0.25 μM dithiobis succinimidyl propionate (DSP) on ice; anti-FLAG immunoprecipitates eluted by FLAG peptides, Western blot

Substance: protein disulfide isomerase (PDI) (from UniProt P07237 18-508)
- binding: binds
